These are yes or no findings as the source states them, for the method shown. Binding seen in cells or lysates may run through a third protein. Some results given as binding are weak or reduced against the parent protein; the word gives no strength.
Target: NECTIN2, endogenous in A375 melanoma cells (human) (UniProt Q92692)
Assay: co-IP of FLAG tagged B3GNT2 from A375 lysate, Western blot

The chains behind the UniProt entries cited, without tags or fusion partners. Residues count along the entry.
UniProt Q92692, residues 32-538: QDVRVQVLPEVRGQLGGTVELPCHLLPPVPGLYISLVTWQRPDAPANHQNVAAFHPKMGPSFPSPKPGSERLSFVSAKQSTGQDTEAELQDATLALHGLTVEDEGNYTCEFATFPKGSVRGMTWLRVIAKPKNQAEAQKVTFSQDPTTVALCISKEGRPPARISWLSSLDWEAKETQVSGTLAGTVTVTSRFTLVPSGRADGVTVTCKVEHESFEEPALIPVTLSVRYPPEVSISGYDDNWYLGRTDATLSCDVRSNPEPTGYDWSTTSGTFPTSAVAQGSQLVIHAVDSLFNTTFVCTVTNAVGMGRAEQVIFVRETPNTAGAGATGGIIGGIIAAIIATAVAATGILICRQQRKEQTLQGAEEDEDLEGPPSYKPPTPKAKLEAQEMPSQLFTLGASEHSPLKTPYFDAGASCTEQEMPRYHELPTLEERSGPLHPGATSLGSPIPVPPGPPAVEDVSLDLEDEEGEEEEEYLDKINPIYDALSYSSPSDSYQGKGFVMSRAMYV
UniProt Q9NY97: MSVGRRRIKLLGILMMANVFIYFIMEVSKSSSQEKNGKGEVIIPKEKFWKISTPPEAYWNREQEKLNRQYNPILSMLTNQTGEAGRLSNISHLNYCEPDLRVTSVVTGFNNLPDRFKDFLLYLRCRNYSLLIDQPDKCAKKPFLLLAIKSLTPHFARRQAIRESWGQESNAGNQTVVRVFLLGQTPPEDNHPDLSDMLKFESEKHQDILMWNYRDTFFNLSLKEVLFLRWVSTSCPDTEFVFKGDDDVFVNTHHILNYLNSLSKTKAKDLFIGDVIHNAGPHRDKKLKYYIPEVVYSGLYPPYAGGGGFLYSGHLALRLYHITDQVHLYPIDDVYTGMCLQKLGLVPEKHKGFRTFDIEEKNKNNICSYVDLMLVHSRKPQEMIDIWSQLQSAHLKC

binding: binds
Substance: FLAG tagged B3GNT2 (N- or C-terminal FLAG tag) (from UniProt Q9NY97 1-397) (enzyme)
